Taken from: PubChem BioAssay AID1259308 (NCATS, 2017)

- Assay: 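Knock-downs that increase output of a recombinant reporter protein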 (primary screen)
- Cells: human HEK293 embryonic kidney cells stably expressing firefly luciferase (HEK-CMV-Luc2-Hygro)
- Reagent: single siRNA against human genes, 0.8 pmol siRNA per well
- Timing: 72 h
- Read-out: 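Reporter luminescence and viable-cell signal on separate replicate plates, given as percent of non-targeting control and median/MAD z-scores, plus per-cell luciferase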
- Scale: total luciferase, z-score and total luciferase, % of control: higher = more reporter protein produced
- Hit rule: 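An siRNA counts as active if its total luciferase robust z-score exceeds 3; genes with two or more such siRNAs out of three were retested with fresh siRNAs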
- Calls: active = raised luciferase; inactive = no rise
In all, the deposit lists about 59,000 reagents; shown is a random part of them. About 1,510 of them (2.6%) count as active. 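Calls use total luciferase alone and ignore viability, so some active siRNAs may act by altering cell number.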 Entries without a mark were called inactive. Reagents against one gene are numbered here. Not all columns of the deposit are shown. No sequences are given here.

{"Target gene": "TPM3", "reagent no.": 1, "total luciferase, z-score": "3.69 (active)", "total luciferase, % of control": 155}
{"Target gene": "TPM3", "reagent no.": 2, "total luciferase, z-score": 0.363, "total luciferase, % of control": 89.1}
{"Target gene": "TPM3", "reagent no.": 3, "total luciferase, z-score": 2.85, "total luciferase, % of control": 139}
{"Target gene": "NPAT", "reagent no.": 1, "total luciferase, z-score": 2.93, "total luciferase, % of control": 140}
{"Target gene": "NPAT", "reagent no.": 2, "total luciferase, z-score": "3.7 (active)", "total luciferase, % of control": 155}
{"Target gene": "NPAT", "reagent no.": 3, "total luciferase, z-score": 0.53, "total luciferase, % of control": 92.4}
{"Target gene": "NHSL1", "reagent no.": 1, "total luciferase, z-score": 0.499, "total luciferase, % of control": 91.8}
{"Target gene": "NHSL1", "reagent no.": 2, "total luciferase, z-score": -0.988, "total luciferase, % of control": 62.2}
{"Target gene": "NHSL1", "reagent no.": 3, "total luciferase, z-score": -0.861, "total luciferase, % of control": 64.8}
{"Target gene": "FAM186B", "reagent no.": 1, "total luciferase, z-score": 1.47, "total luciferase, % of control": 111}
{"Target gene": "FAM186B", "reagent no.": 2, "total luciferase, z-score": -0.282, "total luciferase, % of control": 76.3}
{"Target gene": "FAM186B", "reagent no.": 3, "total luciferase, z-score": -0.142, "total luciferase, % of control": 79.1}
{"Target gene": "LIN54", "reagent no.": 1, "total luciferase, z-score": -1.08, "total luciferase, % of control": 60.3}
{"Target gene": "LIN54", "reagent no.": 2, "total luciferase, z-score": -1.43, "total luciferase, % of control": 53.4}
{"Target gene": "LIN54", "reagent no.": 3, "total luciferase, z-score": -1.72, "total luciferase, % of control": 47.7}

Active calls, among the entries above:
{"Target gene": "TPM3", "reagent no.": 1, "total luciferase, z-score": "3.69 (active)", "total luciferase, % of control": 155}
{"Target gene": "NPAT", "reagent no.": 2, "total luciferase, z-score": "3.7 (active)", "total luciferase, % of control": 155}

Continued:
{"Target gene": "CCDC22", "reagent no.": 1, "total luciferase, z-score": 2.69, "total luciferase, % of control": 135}
{"Target gene": "CCDC22", "reagent no.": 2, "total luciferase, z-score": -0.1, "total luciferase, % of control": 79.9}
{"Target gene": "CCDC22", "reagent no.": 3, "total luciferase, z-score": -0.535, "total luciferase, % of control": 71.2}
{"Target gene": "CCPG1", "reagent no.": 1, "total luciferase, z-score": -1.22, "total luciferase, % of control": 57.7}
{"Target gene": "CCPG1", "reagent no.": 2, "total luciferase, z-score": -2.17, "total luciferase, % of control": 38.7}
{"Target gene": "CCPG1", "reagent no.": 3, "total luciferase, z-score": 1.74, "total luciferase, % of control": 116}
{"Target gene": "KLRK1", "reagent no.": 1, "total luciferase, z-score": -0.711, "total luciferase, % of control": 67.8}
{"Target gene": "KLRK1", "reagent no.": 2, "total luciferase, z-score": -0.0357, "total luciferase, % of control": 81.2}
{"Target gene": "KLRK1", "reagent no.": 3, "total luciferase, z-score": -0.457, "total luciferase, % of control": 72.8}
{"Target gene": "ARPC5", "reagent no.": 1, "total luciferase, z-score": 1.76, "total luciferase, % of control": 117}
{"Target gene": "ARPC5", "reagent no.": 2, "total luciferase, z-score": 0.09, "total luciferase, % of control": 83.7}
{"Target gene": "ARPC5", "reagent no.": 3, "total luciferase, z-score": -0.538, "total luciferase, % of control": 71.2}
{"Target gene": "TBATA", "reagent no.": 1, "total luciferase, z-score": 0.917, "total luciferase, % of control": 100}
{"Target gene": "TBATA", "reagent no.": 2, "total luciferase, z-score": 0.939, "total luciferase, % of control": 101}
{"Target gene": "TBATA", "reagent no.": 3, "total luciferase, z-score": -0.0796, "total luciferase, % of control": 80.3}
{"Target gene": "CHMP5", "reagent no.": 1, "total luciferase, z-score": -0.657, "total luciferase, % of control": 68.8}
{"Target gene": "CHMP5", "reagent no.": 2, "total luciferase, z-score": -0.422, "total luciferase, % of control": 73.5}
{"Target gene": "CHMP5", "reagent no.": 3, "total luciferase, z-score": 1.63, "total luciferase, % of control": 114}
